{
  "source": "patent US11274136B2",
  "about": "“Acylated glucagon analogue” (Zealand Pharma A/S, priority 2015, dated 2022)",
  "assay": "Oral glucose tolerance test (OGTT) in mice",
  "assay_type": "in vivo",
  "details": "male C57BL6/J mice, 30 nmol/kg subcutaneous, OGTT 24 h after administration, blood glucose AUC 0-120 min",
  "experimental": "Effects of the test compounds on glycemic control were determined by an oral glucose tolerance test (OGTT) in 7-8 weeks old male C57BL6/J mice (obtained from Charles River Laboratories, Germany). Animals were housed in groups in individually ventilated cages (Tecniplast green line) with a 12-hour light cycle. They had ad libitum excess to a standard rodent diet (Provimi Kliba 3438) and water. The animals were housed in the test facility for at least one week prior to the OGTT. All experimental protocols concerning the use of laboratory animals were reviewed by a federal Ethics Committee and approved by governmental authorities.\nThe compounds were first dissolved in 0.1% aqueous ammonia to a nominal concentration of 2 mg/ml, and then diluted to the desired dosing strength in sterile PBS containing 25 mM phosphate buffer, pH 7.4. Compounds were administered in the morning by subcutaneous injection at a dose of 30 nmol/kg and a volume of 5 ml/kg. Control animals received a vehicle injection only. The GLP-1 analogue liraglutide was tested for comparison purposes. Group size was 5 animals per group.\nThe OGTT was performed 24 h or 48 h after compound administration. Animals were fasted for 10 h before the OGTT but still had ad libitum excess to water. After overnight fasting, a baseline blood sample (0 min) was obtained by tail bleed and blood glucose was measured with a glucometer. […]",
  "note": "At least one compound was matched to its structure with a doubt left.",
  "data": [
    {"compound": "CCCCCCCCCCCCCCCC(=O)N[C@@H](CCC(=O)NCCCC[C@H](NC(=O)[C@H](C)NC(=O)[C@H](C)NC(=O)[C@H](CCC(N)=O)NC(=O)CNC(=O)[C@H](CCC(=O)O)NC(=O)[C@H](CC(C)C)NC(=O)[C@H](Cc1ccc(O)cc1)NC(=O)[C@H](CO)NC(=O)[C@H](CO)NC(=O)[C@@H](NC(=O)[C@H](CC(=O)O)NC(=O)[C@H](CO)NC(=O)[C@@H](NC(=O)[C@H](Cc1ccccc1)NC(=O)[C@@H](NC(=O)CNC(=O)[C@H](CCC(=O)O)NC(=O)[C@H](C)NC(=O)[C@@H](N)Cc1cnc[nH]1)[C@@H](C)O)[C@@H](C)O)C(C)C)C(=O)N[C@@H](CCC(=O)O)C(=O)N[C@@H](Cc1ccccc1)C(=O)N[C@H](C(=O)N[C@@H](C)C(=O)N[C@@H](Cc1c[nH]c2ccccc12)C(=O)N[C@@H](CC(C)C)C(=O)N[C@H](C(=O)N[C@@H](CCCNC(=N)N)C(=O)NCC(=O)N[C@@H](CCCNC(=N)N)C(=O)NCC(=O)O)C(C)C)[C@@H](C)CC)C(=O)O", "note": "[Liraglutide, reference compound]", "values": [
      {"measurement": "OGTT AUC 30 nmol/kg 24 h", "value": 73, "unit": "% CTL"}
    ]}
  ]
}
